Measurements from PubChem BioAssay AID2417 (National Center for Advancing Translational Sciences (NCATS), 2010).
The campaign covered roughly 140,000 compounds. About 4,300 (3.1%) were called active. The inconclusive results got no clear call from the source; some entries with a clear call stand among them for comparison.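 How the source made its calls: active means readout at or below -70, meaning at least 70% loss of cells showing the perinucleolar compartment, a nuclear body marking cancer cells; inconclusive means readout between -30 and a set limit; inactive means the rest.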

Assay: High Content Assay for Compounds that inhibit the Assembly of the Perinucleolar Compartment;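 further: plate controls were DMSO wells for no effect and camptothecin positive control wells for full effect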
Conditions: PC3M PTB-GFP, PNC prevalence imaging, 16 h; at 10 µM; active compounds read low
Outline: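 PC3M cells stably expressing PTB-GFP, 750–1000 cells/well, treated 16 h at 37 °C with compound (23 nl of library stock), in duplicate. After paraformaldehyde fixation and Hoechst stain, imaged at 20x; PNC prevalence scored by image analysis.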

Q: For Cc1ccc(C(=O)CN(Cc2ccccc2)C2=NCCS2)cc1, which activity change (PNC), negative = inhibition is on record?
A: Its activity change (PNC), negative = inhibition is inconclusive: -41.4%.

Q: For C/C(=N\NC(=O)c1ccc(CN2CCOCC2)cc1)c1ccc([N+](=O)[O-])cc1, which activity change (PNC), negative = inhibition is on record?
A: The activity change (PNC), negative = inhibition was inconclusive: -68.8%.

Q: For O=C(NCc1nnc(SCc2ccc(F)cc2)n1-c1ccccc1)C12CC3CC(CC(C3)C1)C2, which activity change (PNC), negative = inhibition is on record?
A: Its activity change (PNC), negative = inhibition is inconclusive: -45%.

Q: Which activity change (PNC), negative = inhibition does the source give for O=C(Nc1ccc2c(c1)C(=O)N(CC1CCCO1)C2=O)c1cccc(Br)c1 (configuration not stated) here?
A: The activity change (PNC), negative = inhibition was inactive: -24.6%.

Q: For CCOc1ccc(N2C(=O)CC(Sc3nc(-c4cccs4)cc(C(F)(F)F)c3C#N)C2=O)cc1 (configuration not stated), which activity change (PNC), negative = inhibition is on record?
A: Its activity change (PNC), negative = inhibition is inconclusive: -41%.

Q: Which activity change (PNC), negative = inhibition does the source give for O=C(CSc1nnc(-c2ccco2)o1)c1ccc(F)c(F)c1 here?
A: Its activity change (PNC), negative = inhibition is inconclusive: -30.7%.

Q: With COC(=O)Cn1c(C)nc2c(sc3nc(C)cc(C)c32)c1=O as the molecule, how does the activity change (PNC), negative = inhibition read?
A: The activity change (PNC), negative = inhibition was inconclusive: -60.2%.

Q: With COc1ccccc1N1CCN(CCCC(=O)c2ccc(F)cc2)CC1 as the molecule, how does the activity change (PNC), negative = inhibition read?
A: Its activity change (PNC), negative = inhibition is inactive: 20.4%.

Q: For CCn1c(C)nc2cc(C(=O)NNC(=O)CCC3CCCC3)ccc21, which activity change (PNC), negative = inhibition is on record?
A: The activity change (PNC), negative = inhibition was inactive: 9.65%.

Q: Which activity change (PNC), negative = inhibition does the source give for Cc1cc(C)n(C(=O)CNC(=O)CCc2ccccc2)n1 here?
A: Its activity change (PNC), negative = inhibition is inconclusive: -31.3%.

Q: Which activity change (PNC), negative = inhibition does the source give for CCC(=O)N(CCC(c1ccco1)c1ccccc1OC)Cc1cccs1 (configuration not stated) here?
A: The activity change (PNC), negative = inhibition was inactive: -19.4%.

Q: With COC(=O)Cc1cc(=O)[nH]c(Nc2nc3ccccc3o2)n1 as the molecule, how does the activity change (PNC), negative = inhibition read?
A: Its activity change (PNC), negative = inhibition is inconclusive: -76.1%.

Q: Which activity change (PNC), negative = inhibition does the source give for N/C(Cc1ccc([N+](=O)[O-])cc1)=N\OC(=O)c1ccc2ccccc2c1 here?
A: Its activity change (PNC), negative = inhibition is inconclusive: -48.3%.

Q: Which activity change (PNC), negative = inhibition does the source give for O=C1C2C3C=CC(C3)C2C(=O)N1/N=C/c1cc(Br)cc([N+](=O)[O-])c1O (configuration not stated) here?
A: Its activity change (PNC), negative = inhibition is inconclusive: -34.5%.

Q: With CC1(C(=O)O)C=CCN1C(=O)c1ccccc1 (configuration not stated) as the molecule, how does the activity change (PNC), negative = inhibition read?
A: The activity change (PNC), negative = inhibition was inconclusive: -64.4%.

Q: Which activity change (PNC), negative = inhibition does the source give for CCOC(=O)c1sc(C)c2c(=O)n(CC)nnc12 here?
A: Its activity change (PNC), negative = inhibition is inconclusive: -37.8%.

Q: With Cc1cccc(OCCCC(=O)Nc2ccc(N3CCCCC3)cc2)c1 as the molecule, how does the activity change (PNC), negative = inhibition read?
A: The activity change (PNC), negative = inhibition was inconclusive: -48.1%.

Q: Which activity change (PNC), negative = inhibition does the source give for COc1ccc(Oc2nccc(OC)c2C#N)cc1 here?
A: The activity change (PNC), negative = inhibition was inactive: -22.6%.

Q: With Cc1ccc(Cn2nnnc2CN2CCC(c3nc4ccc(Cl)cc4[nH]3)CC2)cc1 as the molecule, how does the activity change (PNC), negative = inhibition read?
A: The activity change (PNC), negative = inhibition was inconclusive: -43%.

Q: For Cc1ccc2nc(-c3ccccn3)cc(C(=O)N3CCN(c4ncccn4)CC3)c2c1, which activity change (PNC), negative = inhibition is on record?
A: Its activity change (PNC), negative = inhibition is inconclusive: -40.6%.

Q: For CCOc1cccc(-c2nnc3sc(COc4ccc(OC)cc4)nn23)c1, which activity change (PNC), negative = inhibition is on record?
A: The activity change (PNC), negative = inhibition was inactive: -29.7%.

Q: Which activity change (PNC), negative = inhibition does the source give for C=CCN1C(=O)C2(C(C(=O)c3ccc(C)o3)=C(O)C(=O)N2CCCN2CCOCC2)c2ccccc21 (configuration not stated) here?
A: The activity change (PNC), negative = inhibition was inconclusive: -47.4%.

Q: With Cc1cccc(C(=O)Nc2nnc(-c3ccco3)o2)c1 as the molecule, how does the activity change (PNC), negative = inhibition read?
A: The activity change (PNC), negative = inhibition was inconclusive: -46.2%.

Q: Which activity change (PNC), negative = inhibition does the source give for Cc1nn(-c2ccccc2Cl)c(Cl)c1/C=N/Nc1nc2ccccc2s1 here?
A: The activity change (PNC), negative = inhibition was active: -82.6%.

Q: For CCc1ccccc1N1CC23C=CC(O2)C(C(=O)OC)C3C1=O (configuration not stated), which activity change (PNC), negative = inhibition is on record?
A: Its activity change (PNC), negative = inhibition is inconclusive: -66.9%.

Q: For Cc1ccc2oc(=O)c3cnn(CC(=O)N(CCC(C)C)Cc4ccco4)c3c2c1, which activity change (PNC), negative = inhibition is on record?
A: Its activity change (PNC), negative = inhibition is inconclusive: -30.8%.

Q: With CCOc1ccccc1N1Cc2cc(C)c(C)cc2C1 as the molecule, how does the activity change (PNC), negative = inhibition read?
A: Its activity change (PNC), negative = inhibition is inconclusive: -36%.

Q: With Cc1ccc(CSc2nnc(-c3ccc(S(=O)(=O)N4CCCC4)cc3)o2)cc1 as the molecule, how does the activity change (PNC), negative = inhibition read?
A: Its activity change (PNC), negative = inhibition is active: -91.5%.

Q: For O=C(/C=C/c1ccccc1)C1C(=O)c2ccccc2C1=O, which activity change (PNC), negative = inhibition is on record?
A: Its activity change (PNC), negative = inhibition is inactive: -26.4%.

Q: For O=C(COC(=O)c1c2c(nc3ccccc13)/C(=C/c1ccco1)CC2)NC1CCCC1, which activity change (PNC), negative = inhibition is on record?
A: The activity change (PNC), negative = inhibition was inactive: 3.22%.

Q: Which activity change (PNC), negative = inhibition does the source give for Cc1ccc2c(=O)c(C(=O)NCc3cccs3)c[nH]c2c1 here?
A: Its activity change (PNC), negative = inhibition is inconclusive: -50%.

Q: For COc1ccc(/C=C(\C#N)C(=O)OCC(=O)NCc2ccccc2)cc1, which activity change (PNC), negative = inhibition is on record?
A: Its activity change (PNC), negative = inhibition is inactive: 42.3%.

Q: For O=C(O)c1c(NC(=O)c2cccc3ccccc23)sc2c1CCC2, which activity change (PNC), negative = inhibition is on record?
A: Its activity change (PNC), negative = inhibition is inconclusive: -53.2%.

Q: For COc1ccc(Nc2nc(N3CCCCC3)c3ccccc3n2)cc1, which activity change (PNC), negative = inhibition is on record?
A: The activity change (PNC), negative = inhibition was inconclusive: -42.7%.

Q: Which activity change (PNC), negative = inhibition does the source give for S=C(Nc1ccc2nsnc2c1)N1CCCCC1 here?
A: The activity change (PNC), negative = inhibition was inactive: -18.2%.

Q: For Oc1ccc(C(=S)N2CCCCCC2)cc1, which activity change (PNC), negative = inhibition is on record?
A: Its activity change (PNC), negative = inhibition is inactive: 14.5%.

Q: For O=C(O)COc1ccc(Oc2ccccc2)cc1, which activity change (PNC), negative = inhibition is on record?
A: Its activity change (PNC), negative = inhibition is inconclusive: -55.3%.

Q: Which activity change (PNC), negative = inhibition does the source give for c1nc2sc3c(c2c2nnnn12)CCC3 here?
A: Its activity change (PNC), negative = inhibition is inactive: 58.4%.

Q: Which activity change (PNC), negative = inhibition does the source give for Cc1c(CCO)c(=O)n(-c2ccccc2)n1S(=O)(=O)c1ccc(F)cc1 here?
A: Its activity change (PNC), negative = inhibition is inconclusive: -61.6%.

Q: Which activity change (PNC), negative = inhibition does the source give for CCN(CC)C(=O)C1CCCN(Cc2ccccc2C(F)(F)F)C1 (configuration not stated) here?
A: Its activity change (PNC), negative = inhibition is inactive: 5.5%.

Q: With O=C(CCCc1c[nH]c2ccccc12)N1CCN(c2ccc(N3CCOCC3)nn2)CC1 as the molecule, how does the activity change (PNC), negative = inhibition read?
A: The activity change (PNC), negative = inhibition was inconclusive: -66.3%.

Q: For Cc1cc(-c2csc(N)n2)c(C)n1-c1ccc(Cl)c(Cl)c1, which activity change (PNC), negative = inhibition is on record?
A: Its activity change (PNC), negative = inhibition is inconclusive: -33.4%.

Q: With CCS(=O)(=O)Nc1ccc(Cc2ccc(NS(=O)(=O)CC)cc2)cc1 as the molecule, how does the activity change (PNC), negative = inhibition read?
A: Its activity change (PNC), negative = inhibition is inconclusive: -48.3%.

Q: With Cc1ccc(-n2nc3c(c2NC(=O)c2ccccc2Br)CS(=O)C3)cc1 (configuration not stated) as the molecule, how does the activity change (PNC), negative = inhibition read?
A: Its activity change (PNC), negative = inhibition is inconclusive: -31.5%.

Q: With COc1ccc(N2C(=O)/C(=C\c3ccco3)N=C2SCC(=O)NC(C)(C)C)cc1Cl as the molecule, how does the activity change (PNC), negative = inhibition read?
A: Its activity change (PNC), negative = inhibition is inconclusive: -37%.

Q: For COc1ccc(-c2cc(N)n(S(=O)(=O)c3ccc(C)cc3)n2)c(OC)c1, which activity change (PNC), negative = inhibition is on record?
A: The activity change (PNC), negative = inhibition was active: -91.4%.

Q: With COc1cc(OC)cc(-c2nc3ccccc3c(=O)n2OC(=O)c2ccc(C)c(C)c2)c1 as the molecule, how does the activity change (PNC), negative = inhibition read?
A: Its activity change (PNC), negative = inhibition is inactive: -1.16%.

Q: Which activity change (PNC), negative = inhibition does the source give for CCC(C)(C)n1nnnc1C(c1ccc(C)cc1)N1CCSCC1 (configuration not stated) here?
A: Its activity change (PNC), negative = inhibition is inconclusive: -49.3%.

Q: With Cc1cc(Cl)ccc1Oc1cccc(C(=O)/C(C#N)=C/N(C)C)c1 as the molecule, how does the activity change (PNC), negative = inhibition read?
A: Its activity change (PNC), negative = inhibition is inconclusive: -53%.

Q: With COc1cc(/C=C/C(=O)Nc2ccc(N3CCCCC3)c(S(=O)(=O)Nc3ccccc3Cl)c2)cc(OC)c1OC as the molecule, how does the activity change (PNC), negative = inhibition read?
A: The activity change (PNC), negative = inhibition was inconclusive: -50.5%.

Q: For O=C(COC(=O)COc1ccccc1)NC1CCCc2ccccc21 (configuration not stated), which activity change (PNC), negative = inhibition is on record?
A: The activity change (PNC), negative = inhibition was inconclusive: -35.5%.

Q: For O=C(NCCCN1CCOCC1)NC12CC3CC(CC(C3)C1)C2, which activity change (PNC), negative = inhibition is on record?
A: Its activity change (PNC), negative = inhibition is inconclusive: -62.1%.

Q: For Cc1ccc(C2C(C#N)=C(N)Oc3cc4c(cc32)OCO4)cc1 (configuration not stated), which activity change (PNC), negative = inhibition is on record?
A: The activity change (PNC), negative = inhibition was inconclusive: -59.4%.

Q: Which activity change (PNC), negative = inhibition does the source give for COC(=O)C1CCN(C(=O)Cc2ccc(Br)cc2)CC1 here?
A: The activity change (PNC), negative = inhibition was inconclusive: -60.8%.

Q: Which activity change (PNC), negative = inhibition does the source give for CC(=O)Nc1cccc(NC(=O)CSc2nnc(Cc3cccn3C)n2CCc2ccccc2)c1 here?
A: Its activity change (PNC), negative = inhibition is inconclusive: -38.2%.

Q: For COc1ccccc1NC(=O)C(CC=C(Cl)Cl)C(C)=O (configuration not stated), which activity change (PNC), negative = inhibition is on record?
A: The activity change (PNC), negative = inhibition was inconclusive: -32.7%.

Q: Which activity change (PNC), negative = inhibition does the source give for S=C(Nc1cccc2ccccc12)N1CCN(c2ncccn2)CC1 here?
A: Its activity change (PNC), negative = inhibition is inconclusive: -36.6%.
